{"sequences": {"note": "Amino acid sequences for entries named in this document (tags omitted). A change or cut given only in a name is not applied to a line headed by its entry.", "UniProt P28799": "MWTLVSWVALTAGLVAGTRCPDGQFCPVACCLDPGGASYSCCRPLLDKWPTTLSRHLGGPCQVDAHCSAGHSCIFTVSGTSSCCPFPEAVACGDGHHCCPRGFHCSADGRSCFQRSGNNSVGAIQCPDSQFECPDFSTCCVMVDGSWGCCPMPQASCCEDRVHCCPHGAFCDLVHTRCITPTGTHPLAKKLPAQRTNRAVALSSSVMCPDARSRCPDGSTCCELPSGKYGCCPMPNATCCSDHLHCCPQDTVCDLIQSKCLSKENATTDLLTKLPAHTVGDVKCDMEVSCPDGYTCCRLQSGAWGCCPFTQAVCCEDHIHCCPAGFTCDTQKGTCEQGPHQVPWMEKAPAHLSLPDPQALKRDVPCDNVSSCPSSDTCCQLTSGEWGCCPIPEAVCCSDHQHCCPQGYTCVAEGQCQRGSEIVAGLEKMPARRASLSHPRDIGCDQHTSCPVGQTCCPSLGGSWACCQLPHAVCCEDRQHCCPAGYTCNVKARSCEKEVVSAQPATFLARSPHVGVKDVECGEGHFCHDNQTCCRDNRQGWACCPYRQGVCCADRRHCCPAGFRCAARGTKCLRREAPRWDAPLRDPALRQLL", "UniProt P03973": "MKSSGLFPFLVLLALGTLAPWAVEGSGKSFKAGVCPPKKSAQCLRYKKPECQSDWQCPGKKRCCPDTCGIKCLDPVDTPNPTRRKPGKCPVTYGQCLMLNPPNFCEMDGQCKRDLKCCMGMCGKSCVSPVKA"}, "source": "patent US7427595", "about": "(CORNELL RESEARCH FOUNDATION, dated 2008)", "molecules": {"B1": {"name": "mouse SLPI, full length construct (aa 1-131) expressed from pcDNA3.1 in COS-1 cells (protein)", "chain": "GKNDAIKIGACPAKKPAQCLKLEKPQCRTDWECPGKQRCCQDACGSKCVNPVPIRKPVWRKPGRCVKTQARCMMLNPPNVCQRDGQCDGKYKCCEGICGKVCLPPM"}, "B2": {"name": "mouse SLPI C-terminal domain construct (aa 1-25/81-131) (protein)", "chain": "KPVWRKPGRCVKTQARCMMLNPPNVCQRDGQCDGKYKCCEGICGKVCLPPM"}}, "key": {"[1]": {"target": "recombinant human PEPI (aa 18-593) with an N-terminal FLAG-6xHis tag, purified from HEK293 conditioned medium (human) (UniProt P28799)", "test": "reciprocal co-immunoprecipitation of pure recombinant proteins (5 pmol each)"}, "[2]": {"target": "recombinant human PEPI (aa 18-593) with an N-terminal FLAG-6xHis tag, purified from HEK293 conditioned medium (human) (UniProt P28799)", "test": "co-immunoprecipitation"}, "[3]": {"target": "recombinant human PEPI (aa 18-593) with an N-terminal FLAG-6xHis tag, purified from HEK293 conditioned medium (human) (UniProt P28799)", "test": "co-immunoprecipitation of pure recombinant proteins"}, "[4]": {"target": "FLAG-tagged human PEPI (aa 18-593) expressed from pCMVI-FLAG in HEK293 cells (human) (UniProt P28799)", "test": "co-immunoprecipitation from HEK293 conditioned medium (anti-FLAG IP, anti-SLPI blot)"}, "[5]": {"target": "T1, FLAG-tagged mouse PEPI expressed in COS-1 cells (mouse) (UniProt P28798)", "T1 sequence": "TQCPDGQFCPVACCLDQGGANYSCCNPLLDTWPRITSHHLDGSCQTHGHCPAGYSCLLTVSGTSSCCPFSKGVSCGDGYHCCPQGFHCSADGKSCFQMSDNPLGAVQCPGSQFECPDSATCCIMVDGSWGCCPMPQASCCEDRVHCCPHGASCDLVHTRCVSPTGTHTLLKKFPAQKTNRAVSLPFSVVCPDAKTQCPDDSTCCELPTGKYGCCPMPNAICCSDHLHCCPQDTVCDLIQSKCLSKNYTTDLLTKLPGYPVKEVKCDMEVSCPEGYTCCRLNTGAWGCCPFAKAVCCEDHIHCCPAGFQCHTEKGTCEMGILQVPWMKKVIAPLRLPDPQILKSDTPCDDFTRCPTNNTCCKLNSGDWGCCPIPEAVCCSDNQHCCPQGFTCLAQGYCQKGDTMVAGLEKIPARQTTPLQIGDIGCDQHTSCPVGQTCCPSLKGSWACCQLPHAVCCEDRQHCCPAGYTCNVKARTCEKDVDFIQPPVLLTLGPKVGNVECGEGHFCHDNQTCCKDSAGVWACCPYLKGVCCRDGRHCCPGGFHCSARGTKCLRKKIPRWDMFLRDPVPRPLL", "test": "co-immunoprecipitation from COS-1 conditioned medium (anti-FLAG IP, anti-SLPI blot)"}, "[6]": {"target": "T2, mouse PEPI terminal deletion (truncation) mutants containing EPIs G, F, B, A and C (mouse) (UniProt P28798)", "T2 sequence": "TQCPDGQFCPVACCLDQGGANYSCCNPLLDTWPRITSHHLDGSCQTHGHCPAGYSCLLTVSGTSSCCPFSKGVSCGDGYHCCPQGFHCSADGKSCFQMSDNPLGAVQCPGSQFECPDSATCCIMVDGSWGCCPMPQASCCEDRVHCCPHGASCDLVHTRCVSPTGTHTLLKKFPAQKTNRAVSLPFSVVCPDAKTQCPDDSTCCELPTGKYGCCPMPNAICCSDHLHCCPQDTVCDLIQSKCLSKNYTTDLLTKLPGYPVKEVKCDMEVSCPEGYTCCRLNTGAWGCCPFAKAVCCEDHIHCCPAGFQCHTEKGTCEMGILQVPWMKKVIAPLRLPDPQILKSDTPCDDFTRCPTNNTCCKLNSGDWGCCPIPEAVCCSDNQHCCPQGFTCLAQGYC", "test": "co-immunoprecipitation after co-transfection in COS-1 cells"}, "[7]": {"target": "T1, FLAG-tagged mouse PEPI expressed in COS-1 cells (mouse)", "test": "co-immunoprecipitation of SLPI domain constructs with PEPI (not shown)"}}, "note": "These are yes or no findings as the source states them, for the method shown. Binding seen in cells or lysates may run through a third protein. Some results given as binding are weak or reduced against the parent protein; the word gives no strength. For some of these results: Sequences can lack the tags named with a protein."}
{"molecule": "recombinant human SLPI (Amgen) (from UniProt P03973 26-132)", "values": [{"measurement": "binding", "setting": "[1]", "result": "binds"}, {"measurement": "binding", "setting": "[2]", "result": "binds"}, {"measurement": "binding", "setting": "[3]", "result": "binds"}]}
{"molecule": "human SLPI, full-length construct (aa 1-131) expressed from pcDNA3.1 in HEK293 cells (from UniProt P03973 26-131)", "values": [{"measurement": "binding", "setting": "[4]", "result": "binds"}]}
{"molecule": "B1", "values": [{"measurement": "binding", "setting": "[5]", "result": "binds"}, {"measurement": "binding", "setting": "[6]", "result": "binds"}]}
{"molecule": "B2", "values": [{"measurement": "binding", "setting": "[7]", "result": "binds"}]}
